These are yes or no findings as the source states them, for the method shown. In cells and extracts the contact can be indirect. Some results given as binding are weak or reduced against the parent protein; the word gives no strength.
Molecular target: CAK, the kinase module of TFIIH (CDK7, MAT1, Cyclin H) (UniProt P50613)
Test: co-IP; Supplementary Fig. 4, legend not shown; the methods describe only co-immunoprecipitation of purified factors on protein G magnetic beads, washes at 150 or 500 mM KCl

The chains behind the UniProt entries cited, without tags or fusion partners. Where a name states a change or a piece, a line headed by the entry shows the natural chain unless it says otherwise.
UniProt P50613: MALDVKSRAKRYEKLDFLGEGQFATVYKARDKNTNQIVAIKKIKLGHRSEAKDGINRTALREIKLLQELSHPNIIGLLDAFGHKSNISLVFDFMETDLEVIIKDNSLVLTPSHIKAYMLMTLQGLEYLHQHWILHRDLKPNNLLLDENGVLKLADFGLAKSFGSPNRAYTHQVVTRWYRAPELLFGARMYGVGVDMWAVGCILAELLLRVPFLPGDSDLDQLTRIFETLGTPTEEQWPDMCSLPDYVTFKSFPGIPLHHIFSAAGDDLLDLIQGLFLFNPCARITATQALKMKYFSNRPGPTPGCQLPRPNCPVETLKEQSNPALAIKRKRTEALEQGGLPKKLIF

binding: binds
B1: His-TFIIEβ/WT (natural protein, UniProt P29084 1-291, looked up)
chain: MDPSLLRERELFKKRALSTPVVEKRSASSESSSSSSKKKKTKVEHGGSSGSKQNSDHSNGSFNLKALSGSSGYKFGVLAKIVNYMKTRHQRGDTHPLTLDEILDETQHLDIGLKQKQWLMTEALVNNPKIEVIDGKYAFKPKYNVRDKKALLRLLDQHDQRGLGGILLEDIEEALPNSQKAVKALGDQILFVNRPDKKKILFFNDKSCQFSVDEEFQKLWRSVTVDSMDEEKIEEYLKRQGISSMQESGPKKVAPIQRRKKPASQKKRRFKTHNEHLAGVLKDYSDITSSK
notes: TFIIEβ, the β subunit of the general transcription factor TFIIE, encoded by GTF2E2; also called rIIEβ/WT; the β subunit of rIIEαβ/WT; source: E. coli, purified; alone or co-produced with rIIEα/WT
